Measurements reported in PubChem BioAssay AID720710 (VTT Finland, 2013).
This is one part, drawn at random, of about 1,380 reagents. 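One array per condition without replicates; hydroxyurea arrays received 2 mM for 16 h plus 3 h recovery.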 Reagents against one gene are numbered here.

- Screen: 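Genes whose loss lowers DNA synthesis when an oncogene drives replication stress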 (primary screen)
- Cells: human U-2 OS bone cancer cells, parental and a cyclin E (CCNE1) overexpressing line
- Knock-down reagent: single siRNA against human genes, 1 µM siRNA in the printed spot mix
- Duration: 67 h
- Conditions: half the arrays: hydroxyurea 2 mM for 16 h, then 3 h recovery; other arrays untreated
- Measured: 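EdU click signal imaged per DAPI-stained nucleus at 67 h; each spot divided by its subgrid median, then z-scored relative to non-targeting control spots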
- Direction: EdU z-score, cyclin E line, hydroxyurea and EdU z-score, parental, hydroxyurea and EdU z-score, cyclin E line, untreated and EdU z-score, parental, untreated: higher = more DNA synthesis than non-targeting controls

gene knocked down	siRNA no.	EdU z-score, cyclin E line, hydroxyurea	EdU z-score, parental, hydroxyurea	EdU z-score, cyclin E line, untreated	EdU z-score, parental, untreated
CCNE2	1	-0.122	-2.09	-3.38	-0.288
CCNE2	2	0.797	-0.442	0.389	1.5
UBA1	1	-0.675	-2.28	-2.35	-2.87
UBA1	2	2.39	-0.434	-0.4	0.136
DNMT3A	1	0.512	-2.26	-0.605	-1.27
DNMT3A	2	1.71	0.203	-0.546	-0.3
HDAC11	1	-0.248	0.31	-2.51	-0.949
HDAC11	2	0.299	1.78	-1.02	0.46
GPR158	1	-2.55	0.53	-0.642	-0.781
GPR158	2	2.06	3.48	0.283	0.308

Only “EdU z-score, parental, untreated”, for 2 of the entries above:
UBA1 #2	0.136
DNMT3A #1	-1.27

More results follow:
gene knocked down	siRNA no.	EdU z-score, cyclin E line, hydroxyurea	EdU z-score, parental, hydroxyurea	EdU z-score, cyclin E line, untreated	EdU z-score, parental, untreated
MEN1	1	-1.4	-3.01	-0.282	-0.399
MEN1	2	-1.19	1.14	0.548	0.356
SIRT3	1	-2.34	-7.97	-1.76	-3.81
SIRT3	2	-0.361	0.594	0.21	1.83
NEIL1	1	-1.06	0.751	-1.16	0.416
NEIL1	2	-0.498	0.903	-0.305	0.847
SORD	1	0.779	-1.49	-1.11	-0.208
SORD	2	2.39	-0.421	0.0264	0.96
PMS2	1	-1.22	-0.00655	-1.25	-0.835
PMS2	2	0.835	0.523	-0.746	0.299
CHD6	1	-1.32	-12.3	-0.645	-2.75
CHD6	2	-1.22	0.306	0.391	-0.98
MCPH1	1	-2.27	-3.46	-0.555	-1.09
MCPH1	2	-0.341	-2	0.862	1.05
